Data: patent US4587045A (SmithKline Beckman Corporation, priority 1985, dated 1986)
HELM strings list residues between dots; [ac] is acetyl, [am] amide, other brackets name non-standard units.

Test: general procedure: Boc solid-phase peptide synthesis; Boc-Arg(Tos) Merrifield resin; benzhydrylamine (BHA) resin; 4-methylbenzhydrylamine (MBHA) resin; DCC/HBT; DCC/DMAP for Pmp; preformed Boc symmetrical anhydrides

Substance	crude yield (whole synthesis)	isolated yield (whole synthesis)	step yield (coupling step)
PEPTIDE1{[Pmp].[D-Tyr(Et)].F.V.N.C.P.R.[am]}$PEPTIDE1,PEPTIDE1,1:R3-6:R3$$$V2.0	76%	55%	–
PEPTIDE1{[Pmp].[dY].F.V.N.C.P.R}$PEPTIDE1,PEPTIDE1,1:R3-6:R3$$$V2.0	–	–	45%
Pmp(4-MeBzl)-D-Tyr(Et)-Phe(4'-Et)-Val-Asn-Cys-(4-MeBzl)-Pro-Arg(Tos)-BHA-resin	42.7%	–	–
